The values below come from patent publication CN108752475A.

Protein sequences, listed by entry. Tags and fused reporters are not part of them. Lines headed by an entry give the natural chain unless they say otherwise; changes in a name come on top.
UniProt P28907: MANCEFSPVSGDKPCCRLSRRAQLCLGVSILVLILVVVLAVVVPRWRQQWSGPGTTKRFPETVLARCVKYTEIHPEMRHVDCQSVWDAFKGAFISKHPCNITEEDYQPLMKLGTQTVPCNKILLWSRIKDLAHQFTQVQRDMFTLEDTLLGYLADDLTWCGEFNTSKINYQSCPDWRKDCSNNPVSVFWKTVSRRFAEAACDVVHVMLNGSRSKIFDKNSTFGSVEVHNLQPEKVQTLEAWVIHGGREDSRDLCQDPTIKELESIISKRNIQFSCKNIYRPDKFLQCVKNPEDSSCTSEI

These are yes or no findings as the source states them, for the method shown. Some binding calls cover weakened binding; strength is not graded here.

The labels stand for the following.
B1: S5B7 (mouse-human chimeric antibody, human IgG1) (antibody)
scFv: QVQLQQPGSVLVRPGASVKLSCKATGYTFSSYWIEWVKQRPGHGLEWIGDILPGTGTTNYNEKFKGKATFTADTSSNTAYMQFSSLTSEDSAVYYCASSYGNYVWGQGTSLTVSSGGGGSGGGGSGGGGSDVVMTQSPASLAVSLGQRATISCKASQSVDYDGDSYMNWYQQKPGQPPRLLIYAASNLESGIPARFSGSGSGTDFTLNIHPVEEEDAATYYCQQGNGAPRTFGGGTKLEIK
B2: S5D3 (mouse-human chimeric antibody, human IgG1) (antibody)
scFv: QVQLQQSGAELMKPGASVKISCKATGYTSSSYWIEWVKQRPGHGLEWIGEILPGSGSTNYNEKFKGKATFTADTSSNTAYMQLSSLTSEDSAVYYCARLYDNSYFDYWGQGTSLTVSSGGGGSGGGGSGGGGSDIVMTQSPSSMYASLGERVTITCKASQDINSYLSWFQQKPGKSPKTLIYRANRLVDGVPSRFSGSGSGQDYSLTISSLEYEDMGIYYCLQYDEFPYTFGGGTKLEMK
B3: S5B5 (mouse-human chimeric antibody, human IgG1) (antibody)
scFv: QVKLQQFGAELVKPGASVKISCKATGYTFSSYWIGWVKQRPGHGLEWIGEILPGTGSTNYNEKFKDKATFTADTSPNTAYMQLSSLTSEDSAVYYCARWDGNYGDYALDYWGQGTSVTVSAGGGGSGGGGSGGGGSDIVMTQSPSSMYASLGERVTITCKASQDINSYLSWFQQKPGKSPKTLIYRANRLVDGVPSRFSGSGSGQDYSLTISSLEYEDMGIYYCLQYDEFPYTFGGGTKLEIK
B4: S5B4 (mouse-human chimeric antibody, human IgG1) (antibody)
scFv: QVKLQQSGAELMKPGASVKISCKATGYTFSSYWIGWLKQRPGHGLEWVGELLPGSGSTNYNEKFKGKATFTADTSSNTAYMQLSSLTSEDSAVYYCARWDGNYGDYTLDYWGQGTSVTVSSGGGGSGGGGSGGGGSDIVMTQSPSSMYASLGERVTITCKASQDINSYLSWFQQKPGKSPKTLIYRANRLVDGVPSRFSGSGSGQDYSLTISSLEYEDMGIYYCLQYDEFPYTFGGGTKLEMK
B5: S5E3 (mouse-human chimeric antibody, human IgG1) (antibody)
scFv: QVQLQQSGPEVVKPGASVKMSCKATGYTSRSYWIEWVKQRPGHGLEWIGEILPGSGSTNYNEKFKGKATFTADTSSNTAYMQLSSLTSEDSAVYYCARWDGNYGDFVLDYWGQGTSVTVSSGGGGSGGGGSGGGGSDIQMTQSPSSMYASLGERVTITCKASQDINSYLSWFQQKPGKSPKTLIYRANRLVDGVPSRFSGSGSGQDYFLTISSLEYEDMGIYYCLQYDEFPYTFGGGTKLEMK

In the experiment the target is 人CD38胞外区 (hCD38) with C-terminal His tag, hCD38-his (human (homo sapiens)) (UniProt P28907). The experiment in a line: ELISA, hCD38-his coated at 1.5 μg/ml, HRP anti-human IgG detection.
Take B1: the binding result is listed as “binds”. To B2 belongs “binds”; to B3, “binds”; to B4, “binds”. To B5 belongs “binds”.
